Earlier results, collected in patent publication US12139744B2, “Stabilisation of biological samples” (QIAGEN GmbH, priority 2013, dated 2024).

System: cells
Details: cited from earlier work

## CC(C)[C@H](NC(=O)c1ccc2ccccc2n1)C(=O)N[C@@H](CC(=O)O)C(=O)COc1c(F)cccc1F [Q-VD-OPh, Quinoline-Val-Asp-CH2-OPH]
  Cytotoxicity: not toxic to cells even at extremely high concentrations
